Source: the supplement of paper PMC5355238
Where a name gives a salt, the structure may show the parent alone. The list shows a part of the results. Most entries show no effect beyond the scatter of the controls.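 Reh is a human leukemia cell line; the read-out is the median γH2AX antibody signal in S-phase cells by flow cytometry, with the score counting standard deviations from the median difference of each paired set of plates. Scores above 2.5 were called candidate hits, while scores below -2 mark compounds that lowered the MK1775-induced damage.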

Each compound was assayed on Reh (assay: Z' of S-phase gammaH2AX difference (drug + MK1775 minus drug alone) (Z-score); higher = stronger synergistic S-phase DNA damage with MK1775). Conditions: MK1775 concentration 400 nM; first compound 10 µM; 4 h.
In the case of `O=c1c(O)c(-c2cc(O)c(O)c(O)c2)oc2cc(O)cc(O)c12` [Myricetin] + C=CCn1c(=O)c2cnc(Nc3ccc(N4CCN(C)CC4)cc3)nc2n1-c1cccc(C(C)(C)O)n1 [MK1775], the “Z' of S-phase gammaH2AX difference (Z-score)” value is reported as inactive: -0.0534.
For `C#CCN(C)Cc1ccccc1` [Pargyline hydrochloride] + C=CCn1c(=O)c2cnc(Nc3ccc(N4CCN(C)CC4)cc3)nc2n1-c1cccc(C(C)(C)O)n1 [MK1775], the “Z' of S-phase gammaH2AX difference (Z-score)” value was inactive: -0.209.
`O=c1[nH]c2ccccc2c2ccccc12` [6(5H)-Phenanthridinone] + C=CCn1c(=O)c2cnc(Nc3ccc(N4CCN(C)CC4)cc3)nc2n1-c1cccc(C(C)(C)O)n1 [MK1775] was tested, and the “Z' of S-phase gammaH2AX difference (Z-score)” value was inactive: 0.412.
For `Cc1cccc(/C=C/c2ccccc2)n1` + C=CCn1c(=O)c2cnc(Nc3ccc(N4CCN(C)CC4)cc3)nc2n1-c1cccc(C(C)(C)O)n1 [MK1775], the “Z' of S-phase gammaH2AX difference (Z-score)” value was inactive: 0.569.
In the case of `CCn1cc(C(=O)O)c(=O)c2ccc(C)nc21` [Nalidixic acid sodium] + C=CCn1c(=O)c2cnc(Nc3ccc(N4CCN(C)CC4)cc3)nc2n1-c1cccc(C(C)(C)O)n1 [MK1775], the “Z' of S-phase gammaH2AX difference (Z-score)” value is reported as inactive: 0.611.
`CCN(CC)CCNC(=O)c1cc(S(C)(=O)=O)ccc1OC` [Tiapride hydrochloride] + C=CCn1c(=O)c2cnc(Nc3ccc(N4CCN(C)CC4)cc3)nc2n1-c1cccc(C(C)(C)O)n1 [MK1775] was tested, and the “Z' of S-phase gammaH2AX difference (Z-score)” value was inactive: 0.0131.
With `O=C(CCCN1CC=C(n2c(=O)[nH]c3ccccc32)CC1)c1ccc(F)cc1` [Droperidol] + C=CCn1c(=O)c2cnc(Nc3ccc(N4CCN(C)CC4)cc3)nc2n1-c1cccc(C(C)(C)O)n1 [MK1775] the “Z' of S-phase gammaH2AX difference (Z-score)” value was inactive: 1.44.
`O=C(NCCNCC(O)COc1ccc(O)cc1)N1CCOCC1` (centres undefined) [Xamoterol hemifumarate] + C=CCn1c(=O)c2cnc(Nc3ccc(N4CCN(C)CC4)cc3)nc2n1-c1cccc(C(C)(C)O)n1 [MK1775] was tested, and the “Z' of S-phase gammaH2AX difference (Z-score)” value was inactive: -0.442.
`N=C(N)c1ccccc1` [Benzamidine hydrochloride] + C=CCn1c(=O)c2cnc(Nc3ccc(N4CCN(C)CC4)cc3)nc2n1-c1cccc(C(C)(C)O)n1 [MK1775] was tested, and the “Z' of S-phase gammaH2AX difference (Z-score)” value was inactive: 0.107.
`CCN(Cc1ccncc1)C(=O)C(CO)c1ccccc1` (centres undefined) [Tropicamide] + C=CCn1c(=O)c2cnc(Nc3ccc(N4CCN(C)CC4)cc3)nc2n1-c1cccc(C(C)(C)O)n1 [MK1775] was tested, and the “Z' of S-phase gammaH2AX difference (Z-score)” value was inactive: 0.11.
In the case of `CCN(CC)CC#CCOC(=O)C(O)(c1ccccc1)C1CCCCC1` (centres undefined) [Oxybutynin Chloride] + C=CCn1c(=O)c2cnc(Nc3ccc(N4CCN(C)CC4)cc3)nc2n1-c1cccc(C(C)(C)O)n1 [MK1775], the “Z' of S-phase gammaH2AX difference (Z-score)” value is reported as inactive: 0.519.
For `COc1ccc(C(=O)NCc2cccnc2)cc1C(=O)NCc1cccnc1` [Picotamide] + C=CCn1c(=O)c2cnc(Nc3ccc(N4CCN(C)CC4)cc3)nc2n1-c1cccc(C(C)(C)O)n1 [MK1775], the “Z' of S-phase gammaH2AX difference (Z-score)” value was inactive: -0.228.
In the case of `C=CC[C@@H]1/C=C(\C)C[C@H](C)C[C@H](OC)[C@H]2O[C@@](O)(C(=O)C(=O)N3CCCC[C@H]3C(=O)O[C@H](/C(C)=C/[C@@H]3CC[C@@H](O)[C@H](OC)C3)[C@H](C)[C@@H](O)CC1=O)[C@H](C)C[C@@H]2OC` [FK-506 (Tacrolimus)] + C=CCn1c(=O)c2cnc(Nc3ccc(N4CCN(C)CC4)cc3)nc2n1-c1cccc(C(C)(C)O)n1 [MK1775], the “Z' of S-phase gammaH2AX difference (Z-score)” value is reported as inactive: 0.000739.
For `O=Nc1c(-c2c(O)[nH]c3ccccc23)[nH]c2ccccc12` [Indirubin-3'-oxime] + C=CCn1c(=O)c2cnc(Nc3ccc(N4CCN(C)CC4)cc3)nc2n1-c1cccc(C(C)(C)O)n1 [MK1775], the “Z' of S-phase gammaH2AX difference (Z-score)” value was inactive: -2.51.
With `COc1ccc2[nH]cc(CCNC(C)=O)c2c1` [Melatonin] + C=CCn1c(=O)c2cnc(Nc3ccc(N4CCN(C)CC4)cc3)nc2n1-c1cccc(C(C)(C)O)n1 [MK1775] the “Z' of S-phase gammaH2AX difference (Z-score)” value was inactive: 0.213.
With `CCCCC/C=C\C[C@@H](O)/C=C/c1cccc(C[C@@H](O)CCCCO)n1` + C=CCn1c(=O)c2cnc(Nc3ccc(N4CCN(C)CC4)cc3)nc2n1-c1cccc(C(C)(C)O)n1 [MK1775] the “Z' of S-phase gammaH2AX difference (Z-score)” value was inactive: -1.32.
For `COc1cc(OC)c(C=C2C(=O)Nc3ccccc32)c(OC)c1` + C=CCn1c(=O)c2cnc(Nc3ccc(N4CCN(C)CC4)cc3)nc2n1-c1cccc(C(C)(C)O)n1 [MK1775], the “Z' of S-phase gammaH2AX difference (Z-score)” value was inactive: 0.0776.
In the case of `CN(NC(=O)CC(=O)NN(C)C(=S)c1ccccc1)C(=S)c1ccccc1` [Elesclomol] + C=CCn1c(=O)c2cnc(Nc3ccc(N4CCN(C)CC4)cc3)nc2n1-c1cccc(C(C)(C)O)n1 [MK1775], the “Z' of S-phase gammaH2AX difference (Z-score)” value is reported as inactive: -3.84.
In the case of `OCCN1CCN(CCCN2c3ccccc3Sc3ccc(Cl)cc32)CC1` [Perphenazine] + C=CCn1c(=O)c2cnc(Nc3ccc(N4CCN(C)CC4)cc3)nc2n1-c1cccc(C(C)(C)O)n1 [MK1775], the “Z' of S-phase gammaH2AX difference (Z-score)” value is reported as inactive: 0.296.
With `NCCCCCCCCCCN` [1,10-Diaminodecane] + C=CCn1c(=O)c2cnc(Nc3ccc(N4CCN(C)CC4)cc3)nc2n1-c1cccc(C(C)(C)O)n1 [MK1775] the “Z' of S-phase gammaH2AX difference (Z-score)” value was inactive: -0.44.
For `COC1=CC(c2cc3ccccc3[nH]2)=N/C1=C\c1[nH]c(C)cc1C` [Obatoclax mesylate (GX15-070)] + C=CCn1c(=O)c2cnc(Nc3ccc(N4CCN(C)CC4)cc3)nc2n1-c1cccc(C(C)(C)O)n1 [MK1775], the “Z' of S-phase gammaH2AX difference (Z-score)” value was inactive: 0.0924.
With `O=c1oc(Cl)c(Cl)c2ccccc12` [3,4-Dichloroisocoumarin] + C=CCn1c(=O)c2cnc(Nc3ccc(N4CCN(C)CC4)cc3)nc2n1-c1cccc(C(C)(C)O)n1 [MK1775] the “Z' of S-phase gammaH2AX difference (Z-score)” value was inactive: 0.197.
With `NS(=O)(=O)c1cc2c(cc1Cl)NCNS2(=O)=O` [Hydrochlorothiazide] + C=CCn1c(=O)c2cnc(Nc3ccc(N4CCN(C)CC4)cc3)nc2n1-c1cccc(C(C)(C)O)n1 [MK1775] the “Z' of S-phase gammaH2AX difference (Z-score)” value was inactive: 0.789.
For `CN(C)CCC=C1c2ccccc2C=Cc2ccccc21` [Cyclobenzaprine hydrochloride] + C=CCn1c(=O)c2cnc(Nc3ccc(N4CCN(C)CC4)cc3)nc2n1-c1cccc(C(C)(C)O)n1 [MK1775], the “Z' of S-phase gammaH2AX difference (Z-score)” value was inactive: -0.444.
